Data taken from PubChem BioAssay AID720534 (National Center for Advancing Translational Sciences (NCATS), 2013).
Out of some 1,600 compounds screened, about 990 (62%) were called active. So high a share suggests a set chosen from earlier hits. Inconclusive means that the source gave no clear call. Such entries were picked first, then a sample of the others. Calls follow the shape of the dose curve; as a rule, active = well fitted inhibition curve with a large enough effect; inconclusive = small, poorly fitted or top-dose-only effect; inactive = no such curve, though single readings can be large or run the other way. Potencies of inconclusive entries are doubtful fits and often do not repeat.

assay: qHTS for Inhibitors of TGF-b: Confirmation of Cherry Picks; conditions: HepG2 CAGA-GFP TGF-b reporter, GFP fluorescence, 18 h, cells stimulated with TGF-beta, 500 pg/mL; activity, negative = inhibition: at 46.1 µM (top of the series); also: nearly all actives have a fitted effect of over 65% in size
Outline: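 TGF-beta reporter retest in HepG2 CAGA-GFP cells: compound, then 500 pg/mL TGF-beta (final), 18 h, 37 degrees C. Per-well GFP signal normalized to unstimulated and stimulated controls; concentration-effect curves fitted.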
% is scaled to controls: 0 for no effect and ±100 for the full control effect; potency is read from the fitted curve at half-maximal effect.

| Structure (SMILES) | Potency | activity, negative = inhibition |
| --- | --- | --- |
| O=C(CSC1=NNC(c2ccccn2)S1)Nc1ccc(C(F)(F)F)cc1 (stereo not drawn) | inactive |  |
| Cc1ccsc1/C=N/NC(=O)c1cc(-c2ccncc2)nc2ccccc12 | inactive |  |
| CCOc1ccccc1NC(=O)c1nc(S(=O)(=O)Cc2ccccc2)ncc1Cl | active: 2.91 µM |  |
| O=C(C1CCC(=O)N(C2CCCCCC2)C1)N1CCN(c2ccccc2Cl)CC1 (stereo not drawn) | inactive |  |
| Clc1ccc2nc(-c3ccco3)c(Cc3ccccc3)n2c1 | active: 14.6 µM |  |
| O=C(Oc1c(CN2CCOCC2)cc(Cl)c2cccnc12)c1ccccc1 | inactive |  |
| O=C(NC(c1ccccc1)c1ccc2ccccc2n1)C1CCN(CCOc2ccc(Cl)cc2Cl)CC1 (stereo not drawn) | inconclusive: 29.1 µM [inhibitor, single point] |  |
| CCCCOC(=O)Nc1ccc(S(=O)(=O)Nc2ccc([N+](=O)[O-])cc2)cc1 | inconclusive: 29.1 µM [inhibitor, single point] |  |
| COC(=O)c1ccc(C(=O)OC)c(NC(=O)CSc2cccc[n+]2[O-])c1 | inactive |  |
| COc1ccc(C2/C=C\CN(C(=O)C3CC3)[C@H](Cc3ccccc3)C(=O)N2Cc2ccc(F)cc2)cc1 (stereo partly drawn) | inconclusive: 29.1 µM [inhibitor, single point] |  |
| COc1ccc(Cl)cc1Cn1c(C)c(C(=O)NCc2ccc(F)cc2)sc1=O | inconclusive: 25.9 µM [inhibitor, partial curve, poor fit] |  |
| O=C1N[C@@H](c2ccccc2)COC(=O)[C@@H](Cc2ccc(F)cc2)C/C=C\C[C@@H]1CC(=O)N(CCO)Cc1ccccc1 | active: 16.4 µM |  |
| COc1cc(O)c(C(CC(=O)N2CCCC2)c2cc(OC)c(OC)c(OC)c2)c(OC)c1 (stereo not drawn) | inactive |  |
| CCCCn1nnnc1C(c1cccc2ccccc12)N1CCN(C/C=C/c2ccccc2)CC1 (stereo not drawn) | inconclusive: 20.6 µM [inhibitor, single point] |  |
| COc1cc(OC)cc(-c2c(-c3cccs3)c3cc(-c4cnc(OC)nc4)ccc3n2C)c1 |  | inconclusive: -26.6% [inhibitor] |
| O=C(CN(CCc1ccccc1)S(=O)(=O)c1ccc(Cl)cc1)N/N=C/c1ccc2c(c1)OCO2 | inconclusive: 14.6 µM [inhibitor, partial curve, poor fit] |  |
| Cc1cc(C)cc(N(CC(=O)N2CC=C(c3ccccc3)CC2)S(=O)(=O)c2c(C)noc2C)c1 | inconclusive: 16.4 µM [inhibitor, single point] |  |
| CCOc1ccc(CCN2C(=S)N([C@@H](CC(C)C)CN3CCC[C@@H]3CN3C(=S)NC[C@@H]3CC(C)C)C[C@@H]2Cc2ccc(O)cc2)cc1 | inconclusive: 29.1 µM [inhibitor, single point] |  |
| FC(F)(F)c1ccccc1Cc1c(-c2ccccc2)nc2c3ccccc3ccn12 | inconclusive: 11.6 µM [inhibitor, partial curve, poor fit] |  |
| CN1CCN(S(=O)(=O)c2ccc(Sc3nc4ccccc4[nH]3)c3nsnc23)CC1 | inactive |  |
| Cn1c(C(=O)N2CCCC(C(=O)NCCCSC3CCCCC3)C2)cc2sccc21 (stereo not drawn) | inconclusive: 25.9 µM [inhibitor, partial curve] |  |

| Structure (SMILES) | Potency | activity, negative = inhibition |
| --- | --- | --- |
| Nc1ccccc1C(=O)NC(=O)Nc1ccc(Oc2ncc(Br)cn2)c(Cl)c1 | inconclusive: 8.2 µM [inhibitor, partial curve] |  |
| Cc1ccc(S(=O)(=O)Nc2ccc3c(c2)C(=O)N([C@H](C)CO)C[C@@H](C)[C@@H](CN(C)C(=O)Nc2cccc4ccccc24)O3)cc1 | inconclusive: 23.1 µM [inhibitor, single point] |  |
| COc1ccc2cc(CNCCOCCOCCNCc3ccc4cc(OC)ccc4c3)ccc2c1 | inactive |  |
| COc1ccc(OC)c(S(=O)(=O)Nc2cc(Cl)cc(Cl)c2)c1 | active: 20.6 µM |  |
| CC[C@]12c3[nH]c4cc(-c5ccco5)ccc4c3CCN1C(=O)[C@@H](CC(=O)NCCC1=CCCCC1)C[C@@H]2C(=O)N1CCN(C(=O)c2ccco2)CC1 | inconclusive: 9.2 µM [inhibitor, partial curve, poor fit] |  |
| Cc1cccc(NS(=O)(=O)c2ccc(C)c(C(=O)NC3CCN(Cc4ccccc4)CC3)c2)c1 | inconclusive: 11.6 µM [inhibitor, partial curve] |  |
| CC1=C(C(=O)N(C(C)C)C(C)C)CC(CC(=O)NCCCCc2ccccc2)C(=O)N1Cc1ccc(F)cc1 (stereo not drawn) | inconclusive: 25.9 µM [inhibitor, single point] |  |
| CCOC(=O)N1CCN(Cc2ccc(O)c3ncccc23)CC1 | inconclusive: 18.4 µM [inhibitor, partial curve] |  |
| Cc1nc(/N=C(\N)NC(=O)NC2CCCCC2)nc2ccccc12 | active: 11.6 µM |  |
| CCc1ccc(-c2cc(C)no2)cc1S(=O)(=O)N1CCCN(Cc2ccc(F)cc2)C1 | inconclusive: 29.1 µM [inhibitor, single point] |  |
| O=C(c1cccs1)N(Cc1nc2sc3c(c2c(=O)[nH]1)CCCC3)C1CCCC1 | inconclusive: 20.6 µM [inhibitor, single point] |  |
| NC(=O)CC(NC(=O)c1ccc(Br)cc1)c1ccc(N2CCC(Cc3ccccc3)CC2)c([N+](=O)[O-])c1 (stereo not drawn) | inconclusive: 7.31 µM [inhibitor, partial curve] |  |
| CCCOc1ccc(CSc2nc3ccccc3[nH]2)cc1 | inactive |  |
| CN1CCN(Cc2cc(COCc3ccccc3)c3cccnc3c2O)CC1 | inactive |  |
| N=c1n(CCN2CCCCC2)c2ccccc2n1CC(=O)c1cccs1 | inactive |  |
| COc1ccc(Cc2c(-c3ccccc3)nc3ccc(Br)cn23)c(C)c1 | inconclusive: 29.1 µM [inhibitor, single point] |  |
| Brc1ccc2nc(-c3ccccc3)c(Cc3ccccc3)n2c1 | inconclusive: 29.1 µM [inhibitor, single point] |  |
| CCn1c(C(=O)N2CCCC(C(=O)NCCc3ccc(C)cc3)C2)cc2sccc21 (stereo not drawn) | inconclusive: 11.6 µM [inhibitor, partial curve, poor fit] |  |
| COc1ccc(C)cc1S(=O)(=O)N(CC(=O)NCc1ccc(Cl)cc1)Cc1ccccc1 | inconclusive: 29.1 µM [inhibitor, single point] |  |
| CCc1nc2c(OCc3cc(Cl)cc(Cl)c3)cccn2c1N(C)C(=O)c1ccc(OC)cc1 | inconclusive: 29.1 µM [inhibitor, single point] |  |
| CN(C(=O)c1ccc(NC(=O)Cc2cccc(NC(=O)C3CCN(C(=O)CCc4ccccc4)CC3)c2)cc1)C1CCCC1 | inconclusive: 23.1 µM [inhibitor, single point] |  |

| Structure (SMILES) | Potency | activity, negative = inhibition |
| --- | --- | --- |
| CC(C)n1ncc2c(C(=O)N3CCN(Cc4ccc(Cl)s4)CC3)cc(C3CC3)nc21 | inconclusive: 25.9 µM [inhibitor, single point] |  |
| CCN(CC)C(=O)c1nc[nH]c1C(=O)N1CCN(c2ccccc2)CC1 | inactive |  |
| Nc1nnnn1/N=C/C(Br)=C/c1ccccc1 | inconclusive: 29.1 µM [inhibitor, single point] |  |
| CC1(C)Cc2c(cnn2-c2ccccc2)-c2c1c1ccccc1n2CC(O)CBr (stereo not drawn) | inconclusive: 23.1 µM [inhibitor, single point] |  |
| Cc1ccc(-c2csc(NC(=O)CCNC(=O)c3ccc(Cl)cc3)n2)cc1 | inactive |  |
| Cc1ccc2nc(-c3ccco3)c(CC3CCCCC3)n2c1 | inconclusive: 25.9 µM [inhibitor, single point] |  |
| COc1cc2c(c(OC)c1OC)-c1ccc(SC)c(=O)cc1C(NC=O)CC2 (stereo not drawn) | inconclusive: 0.0184 µM [inhibitor, partial curve, poor fit] |  |
| Cc1ccc2c(C)ccc(O)c2n1 | inactive |  |
| COc1cc2c(c(OC)c1OC)-c1ccc(OC)c(=O)cc1C(NC(=O)c1ccccc1)CC2 (stereo not drawn) | inconclusive: 0.259 µM [inhibitor, full curve] |  |
| O=C(Nc1ccc(N2CCN(c3ncccc3C(F)(F)F)CC2)nc1)c1cccs1 | inconclusive: 29.1 µM [inhibitor, single point] |  |
| CN(c1ccccc1)S(=O)(=O)c1ccc(NC(=O)c2nc(S(C)(=O)=O)ncc2Cl)cc1 | active: 2.91 µM |  |
| O=S(=O)(Nc1ccc(C(O)(C(F)(F)F)C(F)(F)F)cc1)c1cccc2cccnc12 | active: 14.6 µM |  |
| N#Cc1sc2nccc(Nc3ccccc3)c2c1N | active: 8.2 µM |  |
| Cc1ccccc1CS(=O)(=O)c1ncc(Cl)c(C(=O)Nc2ccc(F)cc2)n1 | inconclusive: 20.6 µM [inhibitor, single point] |  |
| NC(c1csc(NC(=O)Nc2ccc(OC(F)(F)F)cc2)n1)C1CCCCC1 (stereo not drawn) | inconclusive: 23.1 µM [inhibitor, single point] |  |
| O=C(CCC(=O)N1CCSc2ccccc21)NCc1cccc(Cl)c1 | inconclusive: 23.1 µM [inhibitor, single point] |  |
| O=C(NCc1ccc2c(c1)OCO2)c1cc([N+](=O)[O-])ccc1N1CCCCC1 | inconclusive: 23.1 µM [inhibitor, single point] |  |
| CN(c1ccc(F)cc1)S(=O)(=O)c1ccc(Cl)c(C(=O)Nc2ccc3c(c2)CCC3)c1 | inconclusive: 11.6 µM [inhibitor, partial curve] |  |
| Cc1ccccc1OCC(O)Cn1c(=N)n(Cc2ccccc2)c2ccccc21 (stereo not drawn) | inconclusive: 29.1 µM [inhibitor, single point] |  |
| COc1ccc(/C=C2\COc3ccccc3C2=O)cc1OC | inconclusive: 14.6 µM [inhibitor, partial curve, poor fit] |  |
| COC(=O)[C@@]1(Cc2ccc(OC)cc2)[C@H]2c3cc(C(=O)N4CCCC4)n(Cc4c(CO)[nH]cc(C)c4=O)c3C[C@H]2CN1C(=O)c1ccccc1 | inactive |  |
